Reference: PubChem BioAssay AID2685 (National Center for Advancing Translational Sciences (NCATS), 2010)
This is one part of the list. The main result of the screen is listed elsewhere. These columns were measured beside it and carry no call. Most of these compounds were active or inconclusive in the main read-out, so they are no random draw. Potencies come from curve fits of mixed quality, noted in brackets.

Test: qHTS Assay for Lipid Storage Modulators in Drosophila S3 Cells;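 as to cell number change: cells counted by Cell Tracker Red CMTPX staining in the red channel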
Conditions: BODIPY lipid droplet fluorescence, 18-24 h; for cell number change: measured here: cell count max response, cells fed with added oleic acid
Summary of the method: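 Laser-scanning cytometry quantifies lipid droplet accumulation (500–530 nm total intensity; droplet/cell object ratio) in oleic acid-fed (400 uM added) Drosophila S3 cells treated with a concentration series. 20 uM Triacsin C defined 100% inhibition.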

[1] = measured here: lipid fluorescence (Fed channel) AC50, cells fed with added oleic acid
[2] = measured here: cell number channel AC50, cells fed with added oleic acid

Structure (SMILES) | cell number change [%] | AC50 [1] | AC50 [2]
Cc1ccn2cc(C(=O)Nc3ccc4c(c3)OCCO4)nc2c1 | -10.7 | 5.8 µM [rising, single point] | –
O=C(C[n+]1ccccc1)N/N=C/c1ccco1 | -40.7 | – | 0.92 µM [falling, partial curve]
COc1cc2ccccc2cc1C(=O)NCC(c1cccs1)N(C)C (stereo unspecified) | 4.78 | 2.06 µM [rising, full curve] | –
COc1ccc(CCC(=O)OCC(=O)N2CCN(S(=O)(=O)c3ccc(C)cc3C)CC2)cc1 | -6.36 | 29.1 µM [rising, single point] | –
COc1cc(C(C(=O)NC(C)(C)C)N(C(=O)CNC(=O)c2cccs2)c2ccccc2)cc(OC)c1OC (stereo unspecified) | -8.03 | 0.731 µM [falling, single point] | –
CCC(CO)N=CC1=C(O)C(C(=O)c2ccccc2)CCC1=O (stereo unspecified) | 59.6 | – | 11.6 µM [rising, partial curve, poor fit]
Cc1ccc(-c2nc3cccnc3s2)cc1NS(=O)(=O)c1cccs1 | 17.2 | – | –
CC/C(=N\NC(=O)CSCc1ccccc1Cl)c1ccc2c(c1)OCCO2 | 31.6 | 0.326 µM [rising, single point] | 25.9 µM [rising, single point]
CC(=O)Nc1ccc(OCC(=O)c2cc(C)ccc2C)cc1 | 13.4 | 4.11 µM [rising, partial curve] | –
CN(CC(=O)Nc1ccc(F)cc1)C(=O)COC(=O)/C=C/c1ccc(OC(F)F)cc1 | 74.5 | – | 29.1 µM [rising, single point]
CCOc1ccccc1NC(=O)CSc1nnc(-c2cnccn2)n1C | 70.4 | 29.1 µM [rising, single point] | –
CN(C)CCN(C(=O)c1ccc2ccccc2c1)c1nc2c(F)cc(F)cc2s1 | 18.7 | 6.51 µM [falling, single point] | –
COc1ccc(C(C)=O)cc1COC(=O)c1ccc2ccccc2n1 | 13.6 | – | –
O=C(NC1CCCC1)c1cccc(NC(=O)c2ccco2)c1 | -99.2 | 16.4 µM [falling, single point] | 20.6 µM [falling, single point]
CCCCN(Cc1ccco1)S(=O)(=O)c1ccc(-c2ccc(=O)[nH]n2)s1 | -42.4 | 1.84 µM [falling, partial curve, poor fit] | 32.6 µM [falling, partial curve, poor fit]
CCOC(=O)C1CCN(CC(O)COc2ccc(C(C)(C)CC)cc2)CC1 (stereo unspecified) | -2.12 | 32.6 µM [falling, single point] | –
CCCc1c(C(=O)OCC)sc(N)c1C#N | 8.27 | 9.2 µM [rising, partial curve] | –
COc1ccc(C2CC(c3cccc(C)c3)n3ncnc3N2)cc1 (stereo unspecified) | – | – | 0.13 µM [rising, full curve, poor fit]
O=C(CCC(=O)N1CCN(c2ccc(F)cc2)CC1)c1ccc(Cl)cc1 | 13 | – | 6.51 µM [rising, single point]
CCCC(=O)n1nc(-c2ccc(Cl)cc2)nc1SC | – | 6.51 µM [falling, partial curve, poor fit] | 2.31 µM [falling, single point]
Cc1cc(OCc2nnc(SC(C)C(=O)O)n2-c2ccccc2)ccc1Cl (stereo unspecified) | 4.69 | 0.58 µM [rising, single point] | 0.00517 µM [rising, full curve, poor fit]

Structure (SMILES) | cell number change [%] | AC50 [1] | AC50 [2]
COc1ccccc1NS(=O)(=O)c1ccc(C)c(NC(=O)c2c(C)noc2C)c1 | -6.74 | 0.00461 µM [rising, full curve, poor fit] | –
CC1CC1C(=O)OCC(=O)NCc1ccc(Cl)cc1Cl (stereo unspecified) | – | 3.66 µM [falling, full curve] | 6.51 µM [falling, single point]
COC(=O)C1(CCSC)NC(c2ccccc2F)C2C(=O)N(c3ccc4c(c3)OCCO4)C(=O)C21 (stereo unspecified) | – | 8.2 µM [rising, partial curve] | –
COc1cccc(CNC(=O)CCC2CCCN(C(=O)c3csc(C(C)C)n3)C2)c1 (stereo unspecified) | -28.9 | 11.6 µM [falling, partial curve] | –
c1ccc(CN2CCN(C(c3ccccc3)c3ccccc3)CC2)cc1 | 15.8 | – | –
CCOCCCNC(=O)C(NC(=O)c1ccc(=O)[nH]c1)c1ccc(Cl)cc1 (stereo unspecified) | – | 0.731 µM [rising, full curve, poor fit] | –
O=C(CSc1cccc2cccc(Cl)c12)OCC(=O)N1CCN(C(=O)c2ccco2)CC1 | 1.63 | 0.461 µM [rising, single point] | –
Cc1c(C(=O)N2CC(C)OC(C)C2)sc2nc(-c3ccc(F)cc3)cn12 (stereo unspecified) | 2.3 | – | –
O=C(CSc1ccccc1)NCc1ccccc1 | 6.2 | 29.1 µM [rising, single point] | –
O=C(CSc1nc2ccccc2c(=O)n1CCCO)Nc1ccc2c(c1)OCCO2 | – | – | 5.17 µM [rising, partial curve]
COc1ccc(OC)c(C(O)c2nc3ccccc3n2C(C)C)c1 (stereo unspecified) | -0.202 | 1.3 µM [falling, full curve, poor fit] | –
CCOC(=O)c1cc(OC(=O)c2ccccc2OC)n(-c2ccccc2)n1 | 37.8 | – | –
COC(=O)/C(C#N)=C/c1c(Oc2cc(C)cc(C)c2)nc2c(C)cccn2c1=O | 37.4 | 25.9 µM [rising, single point] | 6.51 µM [rising, partial curve, poor fit]
O=C1c2oc3ccccc3c(=O)c2C(c2cccnc2)N1CCCN1CCOCC1 (stereo unspecified) | 16.5 | 29.1 µM [rising, single point] | –
COCCNC(=O)/C(C#N)=C1\N=C(NC(=O)c2cccs2)c2ccccc21 | – | 6.51 µM [rising, partial curve, poor fit] | –
CCn1nc(C)cc1-c1nnc(Sc2ncc([N+](=O)[O-])s2)n1C | -64.3 | 2.31 µM [falling, full curve] | 2.31 µM [falling, full curve]
O=C(N/N=C/c1ccc(O)c2ncccc12)c1cccc(Br)c1 | -0.844 | 0.0326 µM [rising, full curve, poor fit] | –
CCn1cc(S(=O)(=O)Nc2cc(F)ccc2C)cn1 | -31.4 | – | 0.259 µM [falling, full curve, poor fit]
Cc1cc2n(n1)C(c1c[nH]c3ccccc13)Nc1ccccc1-2 (stereo unspecified) | 123 | 29.1 µM [rising, partial curve] | 20.6 µM [rising, partial curve]
CN1CCN(c2ccc([N+](=O)[O-])cc2C(=O)Nc2ccccc2)CC1 | -3.25 | – | –
Cn1c(SCC(=O)NCCc2ccccc2)nnc1-c1ccncc1 | 4.31 | – | –

Two successive compounds already listed, quoted:
Structure (SMILES) | cell number change [%] | AC50 [1] | AC50 [2]
CN1CCN(c2ccc([N+](=O)[O-])cc2C(=O)Nc2ccccc2)CC1 | -3.25 | – | –
Cn1c(SCC(=O)NCCc2ccccc2)nnc1-c1ccncc1 | 4.31 | – | –

(more compounds)

Structure (SMILES) | cell number change [%] | AC50 [1] | AC50 [2]
COc1ccc(OC)c(/C=C/C(=O)OCC(=O)NCc2ccco2)c1 | -37.6 | – | 25.9 µM [falling, partial curve, poor fit]
COC(=O)Cn1c2ccccc2c2nc(C)sc21 | 11.9 | – | –
NNC(=O)Cn1nc(Cc2ccccc2)n(N)c1=O | -63.2 | 20.6 µM [falling, single point] | 18.4 µM [falling, single point]
COC(=O)Nc1ccc(S(=O)(=O)NCCO)cc1 | -31.2 | 0.103 µM [falling, full curve, poor fit] | 5.8 µM [falling, full curve, poor fit]
Cc1nc2ncnn2c(C)c1CCC(=O)Oc1ccccc1 | -12.6 | 0.13 µM [falling, full curve, poor fit] | 5.8 µM [falling, single point]
COC(=O)C1(CO)NC(c2cccs2)C2C(=O)N(c3ccccc3)C(=O)C21 (stereo unspecified) | 1.09 | – | –
Nc1ncc2c(n1)-c1ccccc1CC2 | -46.8 | 29.1 µM [falling, single point] | 29.1 µM [falling, single point]
CC(C)c1nn2c(=O)cc(CSc3ccccc3NC(=O)c3ccccc3F)nc2s1 | – | 6.51 µM [rising, single point] | –
CC1(C)CC(=O)C(CS(=O)(=O)c2ccccc2)=C(Cl)C1 | -33.5 | 23.1 µM [falling, single point] | 29.1 µM [falling, single point]
CC1CCN(S(=O)(=O)c2c[nH]c(=O)[nH]c2=O)CC1 | -33.5 | – | 0.461 µM [falling, full curve, poor fit]
CC(=O)NS(=O)(=O)c1ccc(NC(=O)c2ccc3c(c2)OCO3)cc1 | 27 | 0.58 µM [falling, single point] | –
COc1ccc(NC(=O)NNC(=O)C(O)(c2ccccc2)c2ccccc2)cc1 | -14.4 | 29.1 µM [rising, single point] | –
CC1CCCC(C)N1CCCNC(=O)c1cc2c(=O)n(C)c3ccccc3c2n1C (stereo unspecified) | 21.7 | 0.58 µM [rising, single point] | 0.82 µM [rising, full curve, poor fit]
COC(=O)C(CCSC)NC(=O)Cn1ncc2c(=O)oc3ccc(C)cc3c21 (stereo unspecified) | 28.5 | – | –
Cc1n[nH]c(=O)nc1NCc1ccco1 | 25.5 | – | –
Cc1[nH]c2ccccc2c1C(=O)COC(=O)C1CCC(=O)N1 (stereo unspecified) | 1.61 | – | –
COc1ccc(/C=C/C(=O)OCCCN(C)C)cc1 | -5.41 | – | –
N#CC(c1ccc(Cl)nn1)c1ccccc1Cl (stereo unspecified) | 2.76 | 23.1 µM [rising, single point] | –
Cc1ccc(OCCCC(=O)NNC(=O)c2ccncc2)cc1 | 16.4 | 9.2 µM [rising, single point] | –
